Only a part is listed here, and it is no random draw. Calls are pooled over several reports, among them a noisy single-well screen. This is one part of the list.
Legend:
Conditions in all cases: stereoisomer not certain
OR2L3 = tested on: T1, OR2L3
T1 sequence (whole entry): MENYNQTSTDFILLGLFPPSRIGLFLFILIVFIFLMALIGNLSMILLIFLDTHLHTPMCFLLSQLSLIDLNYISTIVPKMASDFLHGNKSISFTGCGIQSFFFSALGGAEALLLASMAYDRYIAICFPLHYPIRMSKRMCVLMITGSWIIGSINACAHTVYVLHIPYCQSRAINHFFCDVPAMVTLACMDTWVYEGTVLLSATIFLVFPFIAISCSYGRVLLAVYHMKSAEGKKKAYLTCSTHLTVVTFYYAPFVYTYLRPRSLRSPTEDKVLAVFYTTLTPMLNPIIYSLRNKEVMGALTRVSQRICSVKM
Procedure, shortened: (§1)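 Whether a receptor–molecule pair is responsive (active) rests on the original authors' judgment that its measured signal was statistically different from baseline. Pairs without that judgment are non-responsive (inactive). Sources used varied assay methods, commonly transient luciferase assays in mammalian cell lines.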

Chains of the proteins cited; added tags and fusions are not shown. A line that says so, or that is headed by a name, gives the form on record, which may keep a tag or linker.
OR2M2, as listed by the source: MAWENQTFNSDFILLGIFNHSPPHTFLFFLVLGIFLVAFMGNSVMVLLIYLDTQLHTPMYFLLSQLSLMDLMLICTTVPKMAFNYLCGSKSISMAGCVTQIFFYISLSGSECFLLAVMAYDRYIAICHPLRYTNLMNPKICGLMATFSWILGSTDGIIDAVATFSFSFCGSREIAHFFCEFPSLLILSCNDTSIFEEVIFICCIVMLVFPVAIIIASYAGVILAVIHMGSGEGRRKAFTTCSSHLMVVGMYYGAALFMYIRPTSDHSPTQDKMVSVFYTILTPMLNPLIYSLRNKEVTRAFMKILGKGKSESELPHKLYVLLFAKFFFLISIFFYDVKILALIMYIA

OR2L5 (Homo sapiens) = target: T2, OR2L5 (Homo sapiens) (UniProt Q8NG80)
T2 sequence (whole entry): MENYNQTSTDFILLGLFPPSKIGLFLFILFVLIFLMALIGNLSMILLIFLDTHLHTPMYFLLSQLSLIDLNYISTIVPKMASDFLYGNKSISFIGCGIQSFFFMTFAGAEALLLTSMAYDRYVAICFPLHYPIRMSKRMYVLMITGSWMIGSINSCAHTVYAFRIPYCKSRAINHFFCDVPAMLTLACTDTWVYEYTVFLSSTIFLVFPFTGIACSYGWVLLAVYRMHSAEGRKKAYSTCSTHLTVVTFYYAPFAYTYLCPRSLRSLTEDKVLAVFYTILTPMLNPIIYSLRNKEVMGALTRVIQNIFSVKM
Procedure, shortened: as §1

OR2L8 = tested on: T3, OR2L8
T3 sequence (whole entry): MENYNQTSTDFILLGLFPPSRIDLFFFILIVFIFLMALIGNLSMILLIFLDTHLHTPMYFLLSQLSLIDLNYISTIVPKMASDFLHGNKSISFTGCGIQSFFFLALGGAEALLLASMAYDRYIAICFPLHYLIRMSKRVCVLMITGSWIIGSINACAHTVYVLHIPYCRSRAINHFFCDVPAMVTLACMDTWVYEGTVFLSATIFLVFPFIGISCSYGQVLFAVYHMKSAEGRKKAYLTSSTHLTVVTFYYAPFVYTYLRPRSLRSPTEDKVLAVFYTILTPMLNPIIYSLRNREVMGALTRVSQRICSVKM
Procedure, shortened: as §1

OR2M2 [1] = tested on: T4, OR2M2
T4 sequence (whole entry): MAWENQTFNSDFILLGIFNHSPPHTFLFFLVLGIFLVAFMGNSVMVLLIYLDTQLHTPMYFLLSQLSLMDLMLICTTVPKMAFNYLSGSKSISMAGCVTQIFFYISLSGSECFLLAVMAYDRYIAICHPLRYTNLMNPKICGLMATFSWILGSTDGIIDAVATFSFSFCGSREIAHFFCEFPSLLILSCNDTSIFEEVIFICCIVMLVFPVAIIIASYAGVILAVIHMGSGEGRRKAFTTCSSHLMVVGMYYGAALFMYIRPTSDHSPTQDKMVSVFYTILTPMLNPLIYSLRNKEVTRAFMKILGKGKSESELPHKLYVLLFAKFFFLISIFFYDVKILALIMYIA
Procedure, shortened: as §1

OR2M3 (Homo sapiens) = target: T5, OR2M3 (Homo sapiens) (UniProt Q8NG83)
T5 sequence (whole entry): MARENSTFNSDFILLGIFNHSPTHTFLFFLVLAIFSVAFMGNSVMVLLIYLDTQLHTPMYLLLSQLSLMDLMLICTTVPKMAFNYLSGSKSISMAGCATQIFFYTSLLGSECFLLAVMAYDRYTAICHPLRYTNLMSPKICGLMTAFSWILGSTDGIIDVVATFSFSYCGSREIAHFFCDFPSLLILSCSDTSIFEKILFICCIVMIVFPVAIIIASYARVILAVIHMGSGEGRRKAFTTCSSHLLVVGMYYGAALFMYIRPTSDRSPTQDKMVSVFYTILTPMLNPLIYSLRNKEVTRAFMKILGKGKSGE
Procedure, shortened: as §1

OR2M4 (Homo sapiens) = target: T6, OR2M4 (Homo sapiens) (UniProt Q96R27)
T6 sequence (whole entry): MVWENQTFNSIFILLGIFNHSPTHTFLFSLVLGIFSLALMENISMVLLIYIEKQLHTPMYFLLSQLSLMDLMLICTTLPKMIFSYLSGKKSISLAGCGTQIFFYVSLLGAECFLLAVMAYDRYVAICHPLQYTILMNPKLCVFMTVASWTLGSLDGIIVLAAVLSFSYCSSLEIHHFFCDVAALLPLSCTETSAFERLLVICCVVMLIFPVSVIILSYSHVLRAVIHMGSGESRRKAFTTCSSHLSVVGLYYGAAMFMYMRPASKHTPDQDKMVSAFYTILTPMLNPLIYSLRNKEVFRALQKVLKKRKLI
Procedure, shortened: as §1

OR2L8 (Homo sapiens) = OR2L8 (Homo sapiens) (UniProt Q8NGY9)
Procedure, shortened: as §1

OR2M2 (Homo sapiens) = OR2M2 (Homo sapiens) (UniProt Q96R28)
Procedure, shortened: as §1

OR2M2 [2] = tested on: OR2M2; remark: listed apart in the source
Procedure, shortened: as §1

OR2M2 [3] = tested on: OR2M2; remark: listed apart in the source
Procedure, shortened: as §1
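Further: active if original authors judged signal statistically different from baseline.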

Compound | odorant receptor agonist call (OR2L3) | odorant receptor agonist call (OR2L5 (Homo sapiens)) | odorant receptor agonist call (OR2L8) | odorant receptor agonist call (OR2M2 [1]) | odorant receptor agonist call (OR2M3 (Homo sapiens)) | odorant receptor agonist call (OR2M4 (Homo sapiens)) | odorant receptor agonist call (OR2L8 (Homo sapiens)) | odorant receptor agonist call (OR2M2 (Homo sapiens)) | odorant receptor agonist call (OR2M2 [2]) | odorant receptor agonist call (OR2M2 [3])
CC(C)=CCCC(C)=CC=O | inactive | inactive | inactive | inactive | inactive | inactive |  |  |  | 
COC(=O)c1ccccc1O | inactive | inactive | inactive | inactive | inactive | inactive |  |  |  | 
CCCCCCCCCCC=O | inactive | inactive | inactive | inactive | inactive | inactive |  |  |  | 
CC12C=CCC1C1CCC3CC(=O)CCC3(C)C1CC2 (stereo not drawn) | inactive | inactive | inactive | inactive | inactive | inactive | inactive | inactive |  | 
O=CCc1ccccc1 | inactive | active | inactive | inactive | inactive | inactive |  |  |  | 
COc1cc(C=O)ccc1O | inactive | inactive | inactive | inactive | inactive |  |  |  |  | 
CC=Cc1ccc(O)c(OC)c1 | inactive | active | inactive | active | inactive | inactive |  |  |  | 
CCCCCCCCOC(C)=O | inactive | inactive | inactive | inactive | inactive | inactive |  |  |  | 
CC1=CCC(C(C)(C)O)CC1 (stereo not drawn) | inactive | inactive | inactive | inactive | inactive | inactive |  |  |  | 
CC(C)CCC(=O)O | inactive | inactive | inactive | inactive | inactive | inactive |  |  |  | 
CC12CCC(CC1)C(C)(C)O2 | inactive | inactive | inactive | inactive | inactive | inactive |  |  |  | 
c1cnccn1 | inactive | inactive | inactive | inactive | inactive | inactive |  |  |  | 
CC(=O)C(C)=O | inactive | inactive | inactive | inactive | inactive | inactive |  |  |  | 
CC12C=CCC1C1CCC3=CC(=O)CCC3(C)C1CC2 (stereo not drawn) | inactive | inactive | inactive | inactive | inactive | inactive |  |  |  | 
CC(=O)OCC=C(C)CCC=C(C)C | inactive | active | inactive | active | inactive | inactive |  | inactive | inactive | inactive
CC12CCC(C1)C(C)(C)C2=O (stereo not drawn) | inactive | inactive | inactive | inactive | inactive | inactive |  |  |  | 
CCC1(O)C2(C)CCC(C2)C1(C)C (stereo not drawn) | inactive | inactive | inactive | inactive | active | inactive |  |  |  | 
CCCCCCCC=CC=O | active | inactive | inactive | inactive | inactive | inactive |  |  |  | 
CCCCO | inactive | inactive | inactive | inactive | inactive | inactive |  |  |  | 
CCCCCCCCCC=O | inactive | inactive | inactive | inactive | inactive | inactive |  |  |  | 
c1ccc(Oc2ccccc2)cc1 | inactive | inactive | inactive | inactive | inactive | inactive |  |  |  | 
C=CCc1ccc(OC(C)=O)c(OC)c1 | inactive | active | inactive | inactive | inactive | inactive |  |  |  | 
CC(=O)OC1CC2CCC1(C)C2(C)C (stereo not drawn) | inactive | inactive | inactive | inactive | inactive | inactive |  |  |  | 
CCCC(=O)O | inactive | inactive | inactive | inactive | inactive | inactive |  |  |  | 
C=CCc1ccc(OC)c(OC)c1 | inactive | inactive | inactive | inactive | inactive | inactive |  |  |  | 
CCCCCOC(C)=O | inactive | inactive | inactive | inactive | inactive | inactive |  |  |  | 
CCCCCCCC=O | inactive | inactive | inactive | inactive | inactive | inactive |  |  |  | 

Sorted by length of the SMILES (descending): some entries from above
Compound | odorant receptor agonist call (OR2L3) | odorant receptor agonist call (OR2L5 (Homo sapiens)) | odorant receptor agonist call (OR2L8) | odorant receptor agonist call (OR2M2 [1]) | odorant receptor agonist call (OR2M3 (Homo sapiens)) | odorant receptor agonist call (OR2M4 (Homo sapiens)) | odorant receptor agonist call (OR2L8 (Homo sapiens)) | odorant receptor agonist call (OR2M2 (Homo sapiens)) | odorant receptor agonist call (OR2M2 [2]) | odorant receptor agonist call (OR2M2 [3])
CC12C=CCC1C1CCC3=CC(=O)CCC3(C)C1CC2 (stereo not drawn) | inactive | inactive | inactive | inactive | inactive | inactive |  |  |  | 
C=CCc1ccc(OC)c(OC)c1 | inactive | inactive | inactive | inactive | inactive | inactive |  |  |  | 
CCCCCCCC=O | inactive | inactive | inactive | inactive | inactive | inactive |  |  |  | 

More compounds.

Compound | odorant receptor agonist call (OR2L3) | odorant receptor agonist call (OR2L5 (Homo sapiens)) | odorant receptor agonist call (OR2L8) | odorant receptor agonist call (OR2M2 [1]) | odorant receptor agonist call (OR2M3 (Homo sapiens)) | odorant receptor agonist call (OR2M4 (Homo sapiens)) | odorant receptor agonist call (OR2L8 (Homo sapiens)) | odorant receptor agonist call (OR2M2 (Homo sapiens)) | odorant receptor agonist call (OR2M2 [2]) | odorant receptor agonist call (OR2M2 [3])
CCCCCCCCC=O |  |  |  |  | inactive |  |  |  |  | 
CCCCCCCOC(C)=O | inactive | inactive | inactive | inactive | inactive | inactive |  |  |  | 
O=C1CCCCCCCCCCCCCCO1 | inactive | inactive | inactive | inactive | inactive | inactive |  |  |  | 
COc1cc(C)ccc1O | inactive | inactive | inactive | inactive | inactive | inactive |  |  |  | 
C=CCc1ccc(O)c(OC)c1 |  |  |  |  | inactive |  |  |  |  | 
CC(C)C(=O)O | inactive | inactive | inactive | inactive | inactive | inactive |  |  |  | 
C=C(C)C1CC=C(C)C(=O)C1 (stereo not drawn) |  |  |  |  | inactive |  |  |  |  | 
CC(=O)OC(C)(C)C1CC=C(C)CC1 (stereo not drawn) | inactive | inactive | inactive | inactive | inactive | inactive |  |  |  | 
CC(=O)c1ccccc1 | inactive |  | inactive | inactive | active | inactive |  |  |  | 
O=C1CCCCC1 | inactive |  | inactive | inactive | inactive | inactive |  |  |  | 
CCCCCC(=O)O | inactive | inactive | inactive | inactive | inactive | inactive |  |  |  | 
CC(C)C=O | inactive | inactive | inactive | inactive | inactive | inactive |  |  |  | 
CCCCCC(C)=O | inactive |  | inactive | inactive | inactive | inactive |  |  |  | 
CC1CCC(C(C)C)C(O)C1 (stereo not drawn) | active | inactive | active | inactive | inactive | inactive |  |  |  | 
C=C(C)C1CCC2=CC(=O)CC(C)C2(C)C1 (stereo not drawn) |  | active |  |  |  |  |  |  |  | 
C=CC(C)(O)CCC=C(C)C (stereo not drawn) | inactive | inactive | inactive | inactive | inactive | inactive |  |  |  | 
CCC=CCCO | inactive | inactive | inactive | inactive | inactive | inactive |  |  |  | 
CC1COCc2cc3c(cc21)C(C)(C)C(C)C3(C)C (stereo not drawn) | active | active | active | active | inactive | inactive |  |  |  | 
C=CCSCC=C | inactive | inactive | inactive | inactive | inactive | inactive |  |  |  | 
COC(=O)c1ccccc1 | inactive |  | inactive | inactive | inactive | active |  |  |  | 
O=C1CCCCCCCCCCCC(=O)OCCO1 | inactive | inactive | inactive | inactive | inactive | inactive |  |  |  | 
CC(C)(O)CCCC1=CCC(C=O)CC1 (stereo not drawn) |  | active |  |  |  |  |  |  |  | 
CC1=NC(C)SC1C (stereo not drawn) | inactive |  | inactive | inactive | inactive | inactive |  |  |  | 
CC(C)(C)c1ccc(CCC=O)cc1 | inactive | inactive | inactive | inactive | inactive | inactive |  |  |  | 
CCCCCCOC(=O)CCC | inactive | inactive | inactive | inactive | inactive | inactive |  |  |  | 
COc1ccccc1O | inactive | inactive | inactive | inactive | inactive | inactive |  |  |  | 
CC(C)CC(=O)O | inactive | inactive | inactive | inactive | inactive | inactive |  |  |  | 

Reference: the M2OR odorant receptor database
